{"source": "PubChem BioAssay AID1259254 (NCATS, 2017)", "aim": "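Finding genes that stop cells copying their DNA twice in one cycle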 (primary screen)", "system": "human HCT116 colorectal cancer cells", "knock-down reagent": "single siRNA against human genes", "timing": "3 days", "read-out": "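Imaged Hoechst DNA stain sorts each cell into a cycle phase by DNA amount; per plate, G2 fraction set to 0% for non-targeting and 100% for GMNN siRNA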", "reading the numbers": "G2 robust z-score and G2 cells, % of GMNN control: higher = more G2 cells, more excess DNA replication", "active means": "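Active siRNAs have a G2 robust z of 5 or more median absolute deviations over the median, which in these data means about 38% or higher of GMNN control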", "note": "Shown is one part, drawn at random, of about 59,000 reagents. Of all reagents, about 1,550 (2.6%) were called active. 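G2 share is only a proxy for re-replication; each gene was hit by three separate siRNAs, and active genes were retested.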 Unmarked entries are inactive. The numbers tell different reagents against one gene apart. Not all columns of the deposit are shown. The record does not give: the amount of reagent."}
{"target gene": "ZIM3", "reagent": 1, "G2 robust z-score": -0.0922, "G2 cells, % of GMNN control": 2.32}
{"target gene": "ZIM3", "reagent": 2, "G2 robust z-score": -0.781, "G2 cells, % of GMNN control": -2.53}
{"target gene": "ZIM3", "reagent": 3, "G2 robust z-score": 0.157, "G2 cells, % of GMNN control": 4.07}
{"target gene": "PRKD3", "reagent": 1, "G2 robust z-score": -1.48, "G2 cells, % of GMNN control": -7.45}
{"target gene": "PRKD3", "reagent": 2, "G2 robust z-score": -0.87, "G2 cells, % of GMNN control": -3.16}
{"target gene": "PRKD3", "reagent": 3, "G2 robust z-score": -1.43, "G2 cells, % of GMNN control": -7.08}
{"target gene": "LTBP1", "reagent": 1, "G2 robust z-score": -0.762, "G2 cells, % of GMNN control": -2.39}
{"target gene": "LTBP1", "reagent": 2, "G2 robust z-score": -0.374, "G2 cells, % of GMNN control": 0.338}
{"target gene": "LTBP1", "reagent": 3, "G2 robust z-score": 2.47, "G2 cells, % of GMNN control": 20.4}
{"target gene": "RCOR2", "reagent": 1, "G2 robust z-score": 0.0563, "G2 cells, % of GMNN control": 3.36}
{"target gene": "RCOR2", "reagent": 2, "G2 robust z-score": 0.983, "G2 cells, % of GMNN control": 9.88}
{"target gene": "RCOR2", "reagent": 3, "G2 robust z-score": 1.44, "G2 cells, % of GMNN control": 13.1}

Continued (2 carried over from the part before).
{"target gene": "RCOR2", "reagent": 2, "G2 robust z-score": 0.983, "G2 cells, % of GMNN control": 9.88}
{"target gene": "RCOR2", "reagent": 3, "G2 robust z-score": 1.44, "G2 cells, % of GMNN control": 13.1}
{"target gene": "ZFAND3", "reagent": 1, "G2 robust z-score": 4.66, "G2 cells, % of GMNN control": 35.8}
{"target gene": "ZFAND3", "reagent": 2, "G2 robust z-score": -0.374, "G2 cells, % of GMNN control": 0.335}
{"target gene": "ZFAND3", "reagent": 3, "G2 robust z-score": "6.72 (active)", "G2 cells, % of GMNN control": 50.3}
{"target gene": "BCL11B", "reagent": 1, "G2 robust z-score": 0.092, "G2 cells, % of GMNN control": 3.62}
{"target gene": "BCL11B", "reagent": 2, "G2 robust z-score": -0.357, "G2 cells, % of GMNN control": 0.458}
{"target gene": "BCL11B", "reagent": 3, "G2 robust z-score": -0.975, "G2 cells, % of GMNN control": -3.89}
{"target gene": "CPT1A", "reagent": 1, "G2 robust z-score": -0.436, "G2 cells, % of GMNN control": -0.0997}
{"target gene": "CPT1A", "reagent": 2, "G2 robust z-score": -0.266, "G2 cells, % of GMNN control": 1.1}
{"target gene": "CPT1A", "reagent": 3, "G2 robust z-score": 0.23, "G2 cells, % of GMNN control": 4.58}
{"target gene": "SLC24A5", "reagent": 1, "G2 robust z-score": 4.42, "G2 cells, % of GMNN control": 34.1}
{"target gene": "SLC24A5", "reagent": 2, "G2 robust z-score": -0.214, "G2 cells, % of GMNN control": 1.46}
{"target gene": "SLC24A5", "reagent": 3, "G2 robust z-score": -0.0808, "G2 cells, % of GMNN control": 2.4}
{"target gene": "DPYSL4", "reagent": 1, "G2 robust z-score": 1.91, "G2 cells, % of GMNN control": 16.4}
{"target gene": "DPYSL4", "reagent": 2, "G2 robust z-score": 2.11, "G2 cells, % of GMNN control": 17.8}
{"target gene": "DPYSL4", "reagent": 3, "G2 robust z-score": 4.05, "G2 cells, % of GMNN control": 31.5}
{"target gene": "BMS1P1", "reagent": 1, "G2 robust z-score": -0.53, "G2 cells, % of GMNN control": -0.759}
{"target gene": "BMS1P1", "reagent": 2, "G2 robust z-score": -0.299, "G2 cells, % of GMNN control": 0.862}
{"target gene": "BMS1P1", "reagent": 3, "G2 robust z-score": -0.945, "G2 cells, % of GMNN control": -3.68}
